These are yes or no findings as the source states them, for the method shown. Some binding calls cover weakened binding; strength is not graded here.
Target: KDR-alkaline phosphatase (AP) soluble fusion protein (human) (UniProt P35968)
Experiment: selection from second phage library on KDR

Amino acid sequences for entries named in this document (tags omitted). Residues count along the entry.
UniProt P35968, residues 20-764: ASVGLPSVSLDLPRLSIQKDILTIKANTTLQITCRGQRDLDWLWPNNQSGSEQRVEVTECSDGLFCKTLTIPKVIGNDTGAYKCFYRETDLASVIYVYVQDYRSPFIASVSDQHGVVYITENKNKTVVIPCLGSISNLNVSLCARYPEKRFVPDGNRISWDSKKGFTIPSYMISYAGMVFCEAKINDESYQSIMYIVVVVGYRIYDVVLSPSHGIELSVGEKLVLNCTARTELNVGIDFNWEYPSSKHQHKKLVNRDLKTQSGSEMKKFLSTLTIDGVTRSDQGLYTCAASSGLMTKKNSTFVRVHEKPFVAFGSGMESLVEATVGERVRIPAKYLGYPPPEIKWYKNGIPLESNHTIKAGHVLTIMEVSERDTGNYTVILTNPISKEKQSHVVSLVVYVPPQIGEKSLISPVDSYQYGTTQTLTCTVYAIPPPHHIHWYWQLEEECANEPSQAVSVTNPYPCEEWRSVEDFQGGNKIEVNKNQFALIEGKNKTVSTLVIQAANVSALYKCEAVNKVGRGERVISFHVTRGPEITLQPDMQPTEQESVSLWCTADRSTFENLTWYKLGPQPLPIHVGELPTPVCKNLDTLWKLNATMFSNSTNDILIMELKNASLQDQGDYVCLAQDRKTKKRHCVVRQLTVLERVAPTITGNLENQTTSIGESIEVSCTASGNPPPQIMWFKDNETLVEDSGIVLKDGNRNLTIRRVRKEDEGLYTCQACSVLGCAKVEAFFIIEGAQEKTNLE

B1: SF7 Fab (Fab, V domains shown)
VH: EVQLVQSGGGLVKPGGSLRLSCAASGFTFSSYSMNWVRQAPGKGLEWVSSISSSSSYIYYADSVKGRFTISRDNAKNSLYLQMNSLRAEDTAVYYCARVTDAFDIWGQGTMVTVSS
VL: QSVLTQPPSVSGAPGQRVTISCTGSHSNFGAGTDVHWYQHLPGTAPRLLIHGDTHRPSGVADRFSGSRSGASASLAITGLRVEDEADYYCQSYDYGLRGWVFGGGTKLTVL
binding: binds
